Data: the supplement of paper PMC8728848
Some of the results follow.

Experiments:
Assay in all cases: glycan array binding signal (z-score within array); higher = stronger binding
Settings in all cases: glycan notation: IUPAC condensed, linker removed
[1] = molecular target: Neu5Ac(a2-3)Gal(b1-4)GlcNAc(b1-3)GalNAc
Procedure, shortened: (§1)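 Glycan array data came from 3228 arrays in the Consortium for Functional Glycomics database, and only arrays with an available protein sequence were kept. Glycan names were put into IUPAC-condensed notation, and columns mapping to the same glycan were averaged. The binding signal is a within-array Z-score, averaged across arrays of one protein sequence run at different concentrations or buffers and across linkers. A negative Z-score can be read as non-binding.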

[2] = molecular target: Neu5Ac(a2-3)Gal(b1-4)GlcNAc(b1-3)[Neu5Ac(a2-3)Gal(b1-4)GlcNAc(b1-6)]GalNAc
Procedure, shortened: as §1

[3] = molecular target: Neu5Ac(a2-3)Gal(b1-4)GlcNAc(b1-6)GalNAc
Procedure, shortened: as §1

[4] = molecular target: Neu5Ac(a2-3)Gal(b1-4)GlcNAc(b1-6)[Gal(b1-3)]GalNAc
Procedure, shortened: as §1

[5] = molecular target: Neu5Ac(a2-3)Gal(b1-4)GlcNAc(b1-6)[Neu5Ac(a2-3)Gal(b1-3)]GalNAc
Procedure, shortened: as §1

[6] = molecular target: Neu5Ac(a2-3)Gal(b1-4)GlcNAc6S
Procedure, shortened: as §1

[7] = molecular target: Neu5Ac(a2-3)Gal(b1-4)[Fuc(a1-3)]GlcNAc
Procedure, shortened: as §1

[8] = molecular target: Neu5Ac(a2-3)Gal(b1-4)[Fuc(a1-3)]GlcNAc(b1-2)Man
Procedure, shortened: as §1

[9] = molecular target: Neu5Ac(a2-3)Gal(b1-4)[Fuc(a1-3)]GlcNAc(b1-3)Gal
Procedure, shortened: as §1

[10] = molecular target: Neu5Ac(a2-3)Gal(b1-4)[Fuc(a1-3)]GlcNAc(b1-3)Gal(b1-4)GlcNAc
Procedure, shortened: as §1

[11] = molecular target: Neu5Ac(a2-3)Gal(b1-4)[Fuc(a1-3)]GlcNAc(b1-3)Gal(b1-4)[Fuc(a1-3)]GlcNAc(b1-3)Gal(b1-4)[Fuc(a1-3)]GlcNAc
Procedure, shortened: as §1

[12] = molecular target: Neu5Ac(a2-3)Gal(b1-4)[Fuc(a1-3)]GlcNAc(b1-3)GalNAc
Procedure, shortened: as §1

[13] = molecular target: Neu5Ac(a2-3)Gal(b1-4)[Fuc(a1-3)]GlcNAc(b1-6)[Gal(b1-3)]GalNAc
Procedure, shortened: as §1

[14] = molecular target: Neu5Ac(a2-3)Gal(b1-4)[Fuc(a1-3)]GlcNAc(b1-6)[Neu5Ac(a2-3)Gal(b1-3)]GalNAc
Procedure, shortened: as §1

[15] = molecular target: Neu5Ac(a2-3)Gal(b1-4)[Fuc(a1-3)]GlcNAc6S
Procedure, shortened: as §1

[16] = molecular target: Neu5Ac(a2-3)Gal6S(b1-4)GlcNAc
Procedure, shortened: as §1

[17] = molecular target: Neu5Ac(a2-3)Gal6S(b1-4)[Fuc(a1-3)]GlcNAc
Procedure, shortened: as §1

[18] = molecular target: Neu5Ac(a2-3)GalNAc
Procedure, shortened: as §1

[19] = molecular target: Neu5Ac(a2-3)GalNAc(b1-4)GlcNAc
Procedure, shortened: as §1

[20] = molecular target: Neu5Ac(a2-3)[GalNAc(b1-4)]Gal(b1-4)Glc
Procedure, shortened: as §1

[21] = molecular target: Neu5Ac(a2-3)[GalNAc(b1-4)]Gal(b1-4)GlcNAc
Procedure, shortened: as §1

[22] = molecular target: Neu5Ac(a2-3)[GalNAc(b1-4)]Gal(b1-4)GlcNAc(b1-3)GalNAc
Procedure, shortened: as §1

[23] = molecular target: Neu5Ac(a2-3)[Neu5Ac(a2-6)]GalNAc
Procedure, shortened: as §1

[24] = molecular target: Neu5Ac(a2-6)Gal
Procedure, shortened: as §1

[25] = molecular target: Neu5Ac(a2-6)Gal(b1-3)GlcNAc(b1-3)[Gal(b1-4)GlcNAc(b1-6)]Gal(b1-4)Glc
Procedure, shortened: as §1

[26] = molecular target: Neu5Ac(a2-6)Gal(b1-4)Glc
Procedure, shortened: as §1

[27] = molecular target: Neu5Ac(a2-6)Gal(b1-4)GlcNAc
Procedure, shortened: as §1

[28] = molecular target: Neu5Ac(a2-6)Gal(b1-4)GlcNAc(b1-2)Man
Procedure, shortened: as §1

[29] = molecular target: Neu5Ac(a2-6)Gal(b1-4)GlcNAc(b1-2)Man(a1-3)Man(b1-4)GlcNAc(b1-4)GlcNAc
Procedure, shortened: as §1

[30] = molecular target: Neu5Ac(a2-6)Gal(b1-4)GlcNAc(b1-2)Man(a1-3)[Gal(b1-4)GlcNAc(b1-2)Man(a1-6)]Man(b1-4)GlcNAc(b1-4)GlcNAc
Procedure, shortened: as §1

[31] = molecular target: Neu5Ac(a2-6)Gal(b1-4)GlcNAc(b1-2)Man(a1-3)[GlcNAc(b1-2)Man(a1-6)]Man(b1-4)GlcNAc(b1-4)GlcNAc
Procedure, shortened: as §1

[32] = molecular target: Neu5Ac(a2-6)Gal(b1-4)GlcNAc(b1-2)Man(a1-3)[GlcNAc(b1-4)][Neu5Ac(a2-6)Gal(b1-4)GlcNAc(b1-2)Man(a1-6)]Man(b1-4)GlcNAc(b1-4)GlcNAc
Procedure, shortened: as §1

[33] = molecular target: Neu5Ac(a2-6)Gal(b1-4)GlcNAc(b1-2)Man(a1-3)[Man(a1-6)]Man(b1-4)GlcNAc(b1-4)GlcNAc
Procedure, shortened: as §1

[34] = molecular target: Neu5Ac(a2-6)Gal(b1-4)GlcNAc(b1-2)Man(a1-3)[Neu5Ac(a2-3)Gal(b1-4)GlcNAc(b1-2)Man(a1-6)]Man(b1-4)GlcNAc(b1-4)GlcNAc
Procedure, shortened: as §1

[35] = molecular target: Neu5Ac(a2-6)Gal(b1-4)GlcNAc(b1-2)Man(a1-3)[Neu5Ac(a2-6)Gal(b1-4)GlcNAc(b1-2)Man(a1-6)]Man(b1-4)GlcNAc(b1-4)GlcNAc
Procedure, shortened: as §1

[36] = molecular target: Neu5Ac(a2-6)Gal(b1-4)GlcNAc(b1-2)Man(a1-3)[Neu5Ac(a2-6)Gal(b1-4)GlcNAc(b1-2)Man(a1-6)]Man(b1-4)GlcNAc(b1-4)[Fuc(a1-6)]GlcNAc
Procedure, shortened: as §1

[37] = molecular target: Neu5Ac(a2-6)Gal(b1-4)GlcNAc(b1-2)Man(a1-6)Man(b1-4)GlcNAc(b1-4)GlcNAc
Procedure, shortened: as §1

[38] = molecular target: Neu5Ac(a2-6)Gal(b1-4)GlcNAc(b1-2)Man(a1-6)[Gal(b1-4)GlcNAc(b1-2)Man(a1-3)]Man(b1-4)GlcNAc(b1-4)GlcNAc
Procedure, shortened: as §1

[39] = molecular target: Neu5Ac(a2-6)Gal(b1-4)GlcNAc(b1-2)Man(a1-6)[GlcNAc(b1-2)Man(a1-3)]Man(b1-4)GlcNAc(b1-4)GlcNAc
Procedure, shortened: as §1

[40] = molecular target: Neu5Ac(a2-6)Gal(b1-4)GlcNAc(b1-2)Man(a1-6)[Man(a1-3)]Man(b1-4)GlcNAc(b1-4)GlcNAc
Procedure, shortened: as §1

[41] = molecular target: Neu5Ac(a2-6)Gal(b1-4)GlcNAc(b1-2)[Neu5Ac(a2-6)Gal(b1-4)GlcNAc(b1-4)]Man(a1-3)[GlcNAc(b1-4)][Neu5Ac(a2-6)Gal(b1-4)GlcNAc(b1-2)[Neu5Ac(a2-6)Gal(b1-4)GlcNAc(b1-6)]Man(a1-6)]Man(b1-4)GlcNAc(b1-4)GlcNAc
Procedure, shortened: as §1

[42] = molecular target: Neu5Ac(a2-6)Gal(b1-4)GlcNAc(b1-2)[Neu5Ac(a2-6)Gal(b1-4)GlcNAc(b1-4)]Man(a1-3)[GlcNAc(b1-4)][Neu5Ac(a2-6)Gal(b1-4)GlcNAc(b1-4)Man(a1-6)]Man(b1-4)GlcNAc(b1-4)GlcNAc
Procedure, shortened: as §1

[43] = molecular target: Neu5Ac(a2-6)Gal(b1-4)GlcNAc(b1-2)[Neu5Ac(a2-6)Gal(b1-4)GlcNAc(b1-6)]Man(a1-6)[Neu5Ac(a2-6)Gal(b1-4)GlcNAc(b1-2)Man(a1-3)][GlcNAc(b1-4)]Man(b1-4)GlcNAc(b1-4)GlcNAc
Procedure, shortened: as §1

[44] = molecular target: Neu5Ac(a2-6)Gal(b1-4)GlcNAc(b1-3)Gal(b1-3)GlcNAc
Procedure, shortened: as §1

[45] = molecular target: Neu5Ac(a2-6)Gal(b1-4)GlcNAc(b1-3)Gal(b1-4)GlcNAc
Procedure, shortened: as §1

B1: Drgal1 (Danio rerio) (protein)
chain: MAGVLIQNMSFKVGQTLTITGVPKPDSTNFAINIGHSPEDIALHMNPRFDAHGDQCTIVCNSFQSGSWCEEHRDDNFPFIQDKEFQIKITFTNEEFLVTLPDGSEIHFPNRQGSEKYKYMYFEGEVRIQGVEIK
- glycan array binding signal (z-score) [1]: 0.164
- glycan array binding signal (z-score) [2]: 0.152
- glycan array binding signal (z-score) [3]: -0.099
- glycan array binding signal (z-score) [4]: 0.539
- glycan array binding signal (z-score) [5]: -0.825
- glycan array binding signal (z-score) [6]: -0.362
- glycan array binding signal (z-score) [7]: -0.689
- glycan array binding signal (z-score) [8]: -0.502
- glycan array binding signal (z-score) [9]: -0.059
- glycan array binding signal (z-score) [10]: 0.135
- glycan array binding signal (z-score) [11]: -0.239
- glycan array binding signal (z-score) [12]: 5.78
- glycan array binding signal (z-score) [13]: 0.126
- glycan array binding signal (z-score) [14]: -0.233
- glycan array binding signal (z-score) [15]: -0.162
- glycan array binding signal (z-score) [16]: -0.469
- glycan array binding signal (z-score) [17]: -0.766
- glycan array binding signal (z-score) [18]: -0.59
- glycan array binding signal (z-score) [19]: -0.657
- glycan array binding signal (z-score) [20]: -0.429
- glycan array binding signal (z-score) [21]: -0.515
- glycan array binding signal (z-score) [22]: -0.314
- glycan array binding signal (z-score) [23]: -0.569
- glycan array binding signal (z-score) [24]: -0.108
- glycan array binding signal (z-score) [25]: -0.166
- glycan array binding signal (z-score) [26]: -0.154
- glycan array binding signal (z-score) [27]: -0.081
- glycan array binding signal (z-score) [28]: -0.396
- glycan array binding signal (z-score) [29]: 0.535
- glycan array binding signal (z-score) [30]: -0.382
- glycan array binding signal (z-score) [31]: -0.699
- glycan array binding signal (z-score) [32]: -0.418
- glycan array binding signal (z-score) [33]: -0.049
- glycan array binding signal (z-score) [34]: 0.079
- glycan array binding signal (z-score) [35]: 0.521
- glycan array binding signal (z-score) [36]: 0.431
- glycan array binding signal (z-score) [37]: 0.046
- glycan array binding signal (z-score) [38]: -0.271
- glycan array binding signal (z-score) [39]: -0.248
- glycan array binding signal (z-score) [40]: -0.533
- glycan array binding signal (z-score) [41]: -0.371
- glycan array binding signal (z-score) [42]: -0.106
- glycan array binding signal (z-score) [43]: -0.669
- glycan array binding signal (z-score) [44]: 0.001
- glycan array binding signal (z-score) [45]: -0.318
